Assay results reported in patent US20080026076A1 (priority 2003, published 2008).

Test system: rats with abdominal aortic constriction (AAC) or sham operated
Experiment: Post-sacrifice morphometric measurements (body, heart and organ weights, heart rate) to assess cardiac hypertrophy
Format: in vivo, rat
Conditions: quercetin diet, mean ± SEM
Text: In this procedure the abdominal aorta is constricted to increase the afterload on the heart and produce pressure overload. […] Rats consumed this diet for 7 days.
On the 8th day, 5 rats were surgically modeled for pressure overload by constricting the abdominal aorta to a diameter of 0.63 mm with a Weck hemoclip. The other 5 rats were sham operated (anesthetized and the aorta exposed, but not constricted). […] Another group of 10 rats were placed on a standard diet with no supplement and treated in an identical fashion with 5 surgically modeled for pressure overload and 5 sham operated. […] Two weeks after surgery post-sacrifice morphometric measurements are obtained by measuring total heart weight, left ventricle weight, and calculating heart:body weight and left ventricle:body weight ratios to assess cardiac mass and cardiac hypertrophy.
Post-sacrifice morphometric measurements are obtained by measuring body weight, total heart weight, calculating heart:body weight ratios and heart rate to assess cardiac mass and cardiac hypertrophy.

O=c1c(O)c(-c2ccc(O)c(O)c2)oc2cc(O)cc(O)c12 [quercetin, 3,5,7,3′,4′-pentahydroxyflavone]
Body wt. (AAC + Q (n = 9)): 342 ± 7 g
Heart Rate (AAC + Q (n = 9)): 414 ± 9^b BPM
Liver wt. (AAC + Q (n = 9)): 10.6 ± 0.6 g
Lung wt. (AAC + Q (n = 9)): 1.48 ± 0.05 g
Body wt. (Sham + Q (n = 10)): 342 ± 10 g
Heart Rate (Sham + Q (n = 10)): 402 ± 9^b BPM
Liver wt. (Sham + Q (n = 10)): 11.1 ± 0.7 g
Lung wt. (Sham + Q (n = 10)): 1.50 ± 0.05 g

Marks after values point to notes of the source that are not given here.
